No constants are given. Whether binding was seen depends on the method and setting. In cells and extracts the contact can be indirect. For part of these data: Binding calls can cover weak binding; strength is not graded here. Tags and fused reporters may be left off the sequences shown.
Tests used:
Assay in all cases: FRET or BRET; FLIM-FRET: GFP fluorescence lifetime in nuclei of Nicotiana tabacum leaf epidermal cells co-expressing GFP- and mCherry/RFP-tagged proteins; measured within nuclear speckles (AtPWO1, SmPWOa) or in the nucleolus (SmPWOb)
[1] = target: mCherry-AtCLFΔSET (i35Spro::mCherry-AtCLFΔSET) (Arabidopsis thaliana)
[2] = target: mCherry-AtSWNΔSET (i35Spro::mCherry-AtSWNΔSET) (Arabidopsis thaliana)
[3] = target: SmCLF-mCherry (i35Spro::SmCLF-mCherry) (Selaginella moellendorffii)

binding [1]: no binding
binding [2]: binds
binding [3]: no binding
B1: AtPWO1-GFP (i35Spro::AtPWO1-GFP) (protein, UniProt Q9M9N3 1-769)
chain: MASPGSGAVDWTVGSIVWVRRRNGSWWPGRILGQEDLDSTHITSPRSGTPVKLLGREDASVDWYNLEKSKRVKPFRCGDFDECIERVESSQAMIIKKREKYARREDAILHALELEKEMLKREGKLVPEKARDDSLDATKERMAIVRVQDTSNGTRESTDYLRTNHVGDVMHLLRDKEEDQPSCEDEAVPRMRGLQDFGLRTASSKRKISCSNGPDTSFKYLARSNSSASSSGDHSMERPIYTLGKEKTKSRAEAKRTKYMFTPSESNDVSDLHENLLSHRDAMHSSFAGGDTRYSDYDPPNFLEDMESDYSESETDSSDMEEDTDDDIPLLSGAGRHSERRNTFSRHTSGEDESTSSEEDHYESSISGDSSYLYSQNPNNEASTVSNWQHKGKRNFRTLPRRSARKRKLHRNRLEDGRYCEYKRRAFGQKPMGYGLDFNGINDMSDGTDDTDPNERQFGDRMIVPGDDYQLSNVVASRCKNIYSHDMLDWDDDPWEGRIGMKKRGEEKLEGLGQEFDVSERHFGRKTYSSLMDVDLEVRGSYQKGPVPIVSLMSKLNGRAIIGHPVEVEVLADGSSESYIQTIDYFGNETTYQDKTFLLPSAWKTARRSNSRVPRLQPFSSSVEADDDATYDYSLADQGRKPLVKKLGLGHFSNDDNSVRRNSSLRIPRPPAERKQQHQQQQKKLLKNTNATASQKTRALSSFSGEQGHNGMKASRDRTHELSNRRVLPGPPTVACIPVKLVYSRLLEKINRPPSKPTAKAFNERRRVQ

Source: publication PMC13193366
